These are yes or no findings as the source states them, for the method shown. Blank lines part the entries; values can stand above or below the binder they belong to.
How the values were obtained:
Experiment in all cases: AUC; sedimentation velocity; 0.2–0.8 mg/ml protein in 10 mM HEPES (pH 7.5), 150 mM NaCl, 1 mM TCEP, 8°C, 50,000 rpm; c(s) distributions (SEDFIT); both purified
[1] = biological target: IA2β catalytic (PTP) domain (human) (UniProt Q92932)
[2] = biological target: GLEPP1 catalytic (PTP) domain (human) (UniProt Q16827)
[3] = biological target: STEP catalytic (PTP) domain (human) (UniProt P54829)

- binding [1]: no binding (tested: 0.8 mg/ml (∼24 μM))
B1: IA2β catalytic (PTP) domain (domain or fragment, UniProt Q92932 715-1010)
chain: SEEPVQSNMDISTGHMILSYMEDHLKNKNRLEKEWEALCAYQAEPNSSFVAQREENVPKNRSLAVLTYDHSRVLLKAENSHSHSDYINASPIMDHDPRNPAYIATQGPLPATVADFWQMVWESGCVVIVMLTPLAENGVRQCYHYWPDEGSNLYHIYEVNLVSEHIWCEDFLVRSFYLKNLQTNETRTVTQFHFLSWYDRGVPSSSRSLLDFRRKVNKCYRGRSCPIIVHCSDGAGRSGTYVLIDMVLNKMAKGAKEIDIAATLEHLRDQRPGMVQTKEQFEFALTAVAEEVNAIL

- binding [2]: no binding (tested: 0.8 mg/ml (∼24 μM))
B2: GLEPP1 catalytic (PTP) domain (domain or fragment, UniProt Q16827 916-1208)
chain: NPVQLDDFDAYIKDMAKDSDYKFSLQFEELKLIGLDIPHFAADLPLNRCKNRYTNILPYDFSRVRLVSMNEEEGADYINANYIPGYNSPQEYIATQGPLPETRNDFWKMVLQQKSQIIVMLTQCNEKRRVKCDHYWPFTEEPIAYGDITVEMISEEEQDDWACRHFRINYADEMQDVMHFNYTAWPDHGVPTANAAESILQFVHMVRQQATKSKGPMIIHCSAGVGRTGTFIALDRLLQHIRDHEFVDILGLVSEMRSYRMSMVQTEEQYIFIHQCVQLMWMKKKQQFCISDV

- binding [3]: no binding (tested: 0.8 mg/ml (∼24 μM))
B3: STEP catalytic (PTP) domain (domain or fragment, UniProt P54829 282-563)
chain: SRVLQAEELHEKALDPFLLQAEFFEIPMNFVDPKEYDIPGLVRKNRYKTILPNPHSRVCLTSPDPDDPLSSYINANYIRGYGGEEKVYIATQGPIVSTVADFWRMVWQEHTPIIVMITNIEEMNEKCTEYWPEEQVAYDGVEITVQKVIHTEDYRLRLISLKSGTEERGLKHYWFTSWPDQKTPDRAPPLLHLVREVEEAAQQEGPHCAPIIVHCSAGIGRTGCFIATSICCQQLRQEGVVDILKTTCQLRQDRGGMIQTCEQYQFVHHVMSLYEKQLSHQS

From paper PMC2638020
